Laboratory results reported in patent US20040101834A1, “Method of and kit for assessing responsiveness of cancer patients to antifolate chemotherapy” (priority 2001, published 2004).
Some entries share one result that the patent states for a list of compounds.

System: GW70 cells (GW1843U89-resistant CEM subline)
Experiment: Antifolate growth inhibition, 72 h drug exposure
Format: cell-based, human
Details: GW70 vs parental CEM cells

Structure (SMILES): Nc1nc2[nH]cc(CCc3ccc(C(=O)N[C@@H](CCC(=O)O)C(=O)O)cc3)c2c(=O)[nH]1 [MTA]
- fold resistance / cross-resistance: 15-147 fold
